Laboratory results published in publication PMC7429352.
These are yes or no findings as the source states them, for the method shown. In cells and extracts the contact can be indirect. Some results given as binding are weak or reduced against the parent protein; the word gives no strength.

Protein sequences, listed by entry. Tags and fused reporters are not part of them.
UniProt Q5VV67: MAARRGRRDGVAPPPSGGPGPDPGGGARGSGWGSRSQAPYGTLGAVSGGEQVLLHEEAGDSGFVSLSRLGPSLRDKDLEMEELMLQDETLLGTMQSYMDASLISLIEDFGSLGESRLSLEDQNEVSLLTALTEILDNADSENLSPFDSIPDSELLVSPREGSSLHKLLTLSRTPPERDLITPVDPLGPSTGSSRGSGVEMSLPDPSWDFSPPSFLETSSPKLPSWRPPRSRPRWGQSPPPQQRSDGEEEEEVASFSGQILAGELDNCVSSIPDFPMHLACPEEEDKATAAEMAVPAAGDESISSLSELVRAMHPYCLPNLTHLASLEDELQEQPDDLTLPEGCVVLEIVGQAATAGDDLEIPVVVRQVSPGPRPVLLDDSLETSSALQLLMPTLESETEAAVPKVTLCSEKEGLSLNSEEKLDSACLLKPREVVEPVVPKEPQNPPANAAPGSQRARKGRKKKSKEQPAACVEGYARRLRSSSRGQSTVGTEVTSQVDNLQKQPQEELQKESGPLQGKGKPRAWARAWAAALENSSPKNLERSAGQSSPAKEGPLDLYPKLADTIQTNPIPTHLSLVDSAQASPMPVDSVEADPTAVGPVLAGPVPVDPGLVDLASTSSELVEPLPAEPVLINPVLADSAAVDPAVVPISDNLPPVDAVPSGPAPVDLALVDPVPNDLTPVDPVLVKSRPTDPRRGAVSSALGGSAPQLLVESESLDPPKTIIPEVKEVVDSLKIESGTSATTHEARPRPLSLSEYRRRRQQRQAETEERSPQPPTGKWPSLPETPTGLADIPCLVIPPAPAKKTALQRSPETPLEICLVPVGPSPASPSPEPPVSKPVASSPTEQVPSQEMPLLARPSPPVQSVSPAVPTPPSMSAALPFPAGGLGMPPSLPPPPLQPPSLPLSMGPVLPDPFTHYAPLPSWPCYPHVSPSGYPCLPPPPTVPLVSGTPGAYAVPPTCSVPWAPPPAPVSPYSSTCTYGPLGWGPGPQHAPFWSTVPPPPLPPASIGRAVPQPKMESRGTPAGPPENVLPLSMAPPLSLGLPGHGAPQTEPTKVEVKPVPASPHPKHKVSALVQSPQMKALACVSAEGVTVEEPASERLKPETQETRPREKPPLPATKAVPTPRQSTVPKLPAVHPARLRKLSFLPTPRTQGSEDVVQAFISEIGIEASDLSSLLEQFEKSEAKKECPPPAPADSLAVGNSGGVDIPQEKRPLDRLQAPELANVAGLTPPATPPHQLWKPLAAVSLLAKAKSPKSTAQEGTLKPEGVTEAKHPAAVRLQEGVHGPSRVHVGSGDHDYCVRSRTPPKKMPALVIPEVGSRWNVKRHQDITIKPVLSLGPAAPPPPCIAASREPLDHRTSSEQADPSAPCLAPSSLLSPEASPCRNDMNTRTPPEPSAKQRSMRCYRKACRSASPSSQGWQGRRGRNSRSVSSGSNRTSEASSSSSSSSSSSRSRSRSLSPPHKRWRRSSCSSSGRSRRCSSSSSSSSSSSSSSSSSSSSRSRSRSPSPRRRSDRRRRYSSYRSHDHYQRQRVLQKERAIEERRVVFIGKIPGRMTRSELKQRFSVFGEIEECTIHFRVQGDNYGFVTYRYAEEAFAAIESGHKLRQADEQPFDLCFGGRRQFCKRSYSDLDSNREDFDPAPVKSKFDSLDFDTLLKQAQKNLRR
UniProt P42224: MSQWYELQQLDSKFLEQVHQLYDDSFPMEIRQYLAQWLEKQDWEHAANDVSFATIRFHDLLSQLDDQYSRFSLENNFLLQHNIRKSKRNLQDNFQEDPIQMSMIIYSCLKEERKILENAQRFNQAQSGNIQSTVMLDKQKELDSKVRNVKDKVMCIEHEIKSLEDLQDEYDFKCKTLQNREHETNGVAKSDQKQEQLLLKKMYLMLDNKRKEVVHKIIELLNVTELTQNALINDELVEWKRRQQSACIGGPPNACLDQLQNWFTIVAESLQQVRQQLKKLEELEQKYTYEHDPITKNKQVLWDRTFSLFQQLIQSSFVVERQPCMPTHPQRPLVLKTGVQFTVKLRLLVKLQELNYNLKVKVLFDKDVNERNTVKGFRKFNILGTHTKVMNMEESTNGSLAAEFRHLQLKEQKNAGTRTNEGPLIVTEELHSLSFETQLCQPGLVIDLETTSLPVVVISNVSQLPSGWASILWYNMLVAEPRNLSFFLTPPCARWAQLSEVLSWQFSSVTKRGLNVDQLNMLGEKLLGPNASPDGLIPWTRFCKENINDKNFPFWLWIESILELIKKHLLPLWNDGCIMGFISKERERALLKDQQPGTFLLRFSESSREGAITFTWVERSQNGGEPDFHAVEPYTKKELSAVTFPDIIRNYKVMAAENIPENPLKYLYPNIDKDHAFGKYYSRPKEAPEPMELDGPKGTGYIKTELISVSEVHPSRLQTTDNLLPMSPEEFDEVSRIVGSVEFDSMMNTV

Biological target: PGC1α-Related Coactivator (PRC) with N-terminal Ha and C-terminal Flag tags (PRC-pcDNA3) (UniProt Q5VV67)
Assay: co-IP; PRC immunoprecipitated (ANTI-FLAG M2 Affinity Gel) from HepG2 cells overexpressing PRC for 48 h; blot probed with indicated antibodies

Signal Transducer and Activator of Transcription 1 (STAT1) (from UniProt P42224 1-750)
binding: binds
